Measurements as given in publication PMC5109244.
Results are given in words; binding and its absence hold for the method and conditions named. Some results given as binding are weak or reduced against the parent protein; the word gives no strength.

T1: short mouse DNGR-1 ECD (extracellular domain of the short isoform of mouse DNGR-1) (mouse), Q8BRU4
T1 chain: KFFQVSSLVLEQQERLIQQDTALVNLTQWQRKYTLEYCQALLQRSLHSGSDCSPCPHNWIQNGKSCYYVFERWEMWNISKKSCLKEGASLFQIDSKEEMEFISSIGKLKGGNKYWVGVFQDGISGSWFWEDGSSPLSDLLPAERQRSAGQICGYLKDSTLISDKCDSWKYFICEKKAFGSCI

B1: short mouse DNGR-1 ECD (extracellular domain of the short isoform of mouse DNGR-1), Q8BRU4 57-238 (domain or fragment)
chain: KFFQVSSLVLEQQERLIQQDTALVNLTQWQRKYTLEYCQALLQRSLHSGSDCSPCPHNWIQNGKSCYYVFERWEMWNISKKSCLKEGASLFQIDSKEEMEFISSIGKLKGGNKYWVGVFQDGISGSWFWEDGSSPLSDLLPAERQRSAGQICGYLKDSTLISDKCDSWKYFICEKKAFGSCI
modifications: here or on the partner: glycosylated (mobility augmented by PNGase F); glycosylated (mobility augmented by PNGase F)
B2: short mouse DNGR-1 ECD (extracellular domain of the short isoform of mouse DNGR-1) (domain or fragment, UniProt Q8BRU4 57-238)
chain: KFFQVSSLVLEQQERLIQQDTALVNLTQWQRKYTLEYCQALLQRSLHSGSDCSPCPHNWIQNGKSCYYVFERWEMWNISKKSCLKEGASLFQIDSKEEMEFISSIGKLKGGNKYWVGVFQDGISGSWFWEDGSSPLSDLLPAERQRSAGQICGYLKDSTLISDKCDSWKYFICEKKAFGSCI
modifications: glycosylated (mobility augmented by PNGase F)

Legend:
[1] = molecular target: T1, short mouse DNGR-1 ECD (extracellular …); assay: reducing SDS-PAGE and Western blot; supernatants with FLAG-tagged ECD proteins diluted into 10 mM MES pH 6.1; 100 mM DTT in Laemmli buffer; anti-FLAG detection; reduction-resistant (type-2) dimers; details: remark: other sources report otherwise
[2] = molecular target: short mouse DNGR-1 ECD (extracellular domain of the short isoform of mouse DNGR-1) (mouse) (UniProt Q8BRU4); assay: condition: only with DTT or β-ME (reducing SDS-PAGE, neutral conditions); reducing SDS-PAGE and Western blot; supernatants with FLAG-tagged ECD proteins, neat or diluted into PBS (neutral conditions); reduced with DTT (100 mM) or β-ME in Laemmli buffer; anti-FLAG detection

Row | Binder | binding [1] | binding [2]
1 | B1 | binds | 
2 | B2 |  | no binding
